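Genome-wide siRNA knockdown in TC32 Ewing sarcoma cells, comparing luciferase light from an NR0B1-promoter reporter with a CMV-promoter reporter 48 hours after transfection.
Each siRNA was applied at 20 nM.
A z-score of the log NR0B1-over-CMV signal, less the median of siRNAs with the same seed; more negative means a stronger specific loss of the NR0B1 reporter.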

The strongest results of the screen are mostly left out here.
Sequences are the guide (antisense) strand, without overhang.

siRNA	target gene	seed-corrected z-score
UCCUUCUCAAUAAUCUGGG	AMOT	-0.1791
UGUUGUUAAGUCGAGGACC	TRAPPC8	0.1554
UCACGAAUGACAGAGCUGC	NGDN	0.07903
UCUGUGAACUCCGUGAACU	NFKBIA	0.3363
UCAGUCCUGAGAACCAUGA	LRRN4CL	0.3871
UCACCAUCCAAGAAGAGCA	QPCTL	-0.4087
UGGAUUAGAAGAACUACUG	WWP1	-0.165
UUCACUAUCACGAAUGAGG	NCK1	0.2544
AAAUGUAUAGAGCCCAAUC	NPY5R	-0.3358
UCAAAGGUAAUCUUCUGGG	NAA16	-0.6657
UUUGUUGUGGACUUCUCUG	MNT	-0.0419
UUUGUGACUCCAAUACACC	PTGFR	-1.116
UUUCCAUCCUUUAUAUACU	RPS18P10	0.1402
UUUCCCAUGAGCUUGUAGC	ACOT6	-0.3098
UAAUCUUCCAGAGGGUUGA	SLC39A14	-0.8754
UUGCAUGAAACCUAUAAUC	TAS2R8	1.648
UAAUCAACAUACUUGUUGC	OCIAD1	0.203
UACUCCACACCAGAUAACC	DRAM2	-0.2767
UAACCAUCAGAAAUUCAGC	OFCC1	0.2049
UUGGUAGUAUUGUCUAUGG	ADGRG4	-1.01
UCUUUAUCCAACAUAGGAC	BRWD1	0.3753
UGUACUCUAUCUUUUCUGC	SMARCE1	-1.556
UCCUUAAGAACUUCUUCUC	ALKBH8	0.7917
UCUUGCACAAGAUUAUUCA	C12orf71	0.9441
UACGCCGAGAUCUUAAGGC	PTPRK	-0.4253
UUCGAAGUAACAAGAUUUG	TBC1D4	0.6152
UGUAGAUUAGCUCAUUUAC	RPL7P56	-0.8706
AAACCGUCAAAAUUCUUGG	PAMR1	0.2178
UAAUAUUUCCAGAAUGCUC	AZGP1	2.104
UAACUGAGAUACAAAGUAC	RPL18A	-1.67
UUCUCGAAGAAGUCCAGGC	CSNK1G2	0.9688
UAAUGGGCCCACUAUCACC	FAXDC2	0.6258
UGGGUUGUUGUAGAAGAUG	GUCD1	0.1652
UAGAUUUAAGUUUCAUUGU	PRELID3BP10	0.2752
UAAUGUUUGAGAAGCACUU	LOC728587	-0.2282
AUUCAUUUGAGCUUUUACC	TUBB2B	1.74
ACAGAUCCCACAAAUCAGC	TRIM13	0.7973
UUUCUGACUCGGUCAGUUC	OCM2	0.0059
AAGGCGAUAAGAUCAUCCC	MCM3AP	0.3359
AAUGGACAUACCGCUGUUC	RUSC1-AS1	1.182
UGUAUAUGAAAUUCGUUCC	ETV6	1.524
UUUGGACCAAUUCUGGGCG	AKR1C6P	1.174
AUACUUAUACAACAAGUCG	DYNC1LI2	-0.492
UAAGGCAUAGUCCAACUGC	LOC644265	0.319
AUAUACGCAAUCCAUAUCC	IL13RA2	0.2796

The first 3 entries again:

* UCCUUCUCAAUAAUCUGGG against AMOT | seed-corrected z-score -0.1791
* UGUUGUUAAGUCGAGGACC against TRAPPC8 | seed-corrected z-score 0.1554
* UCACGAAUGACAGAGCUGC against NGDN | seed-corrected z-score 0.07903

The results are deposited in PubChem (AID1159506; NCATS, 2015).